The conditions of this data set: added into cultured cells or applied to animals.

For `CC[C@H](C)[C@H](NC(=O)[C@H](CC(C)C)NC(=O)[C@H](CCC(=O)O)NC(=O)[C@@H](NC(=O)[C@H](CO)NC(=O)[C@H](Cc1ccc(O)cc1)NC(=O)[C@@H]1CCCN1C(=O)[C@H](CCSC)NC(=O)[C@H](CCCNC(=N)N)NC(=O)[C@H](CC(=O)O)NC(=O)[C@H](CCCCN)NC(=O)[C@H](CC(=O)O)NC(=O)[C@H](CC(=O)O)NC(=O)[C@H](CC(=O)O)NC(=O)[C@H](CC(=O)O)NC(=O)[C@H](Cc1ccc(O)cc1)NC(=O)[C@H](CC(C)C)NC(=O)[C@H](CC(=O)O)NC(=O)[C@@H](N)CCCNC(=N)N)[C@@H](C)O)C(=O)N[C@@H](Cc1ccccc1)C(=O)N[C@@H](Cc1ccc(O)cc1)C(=O)N[C@H](C(=O)N[C@@H](CCC(=O)O)C(=O)N[C@@H](CCSC)C(=O)N[C@@H](CC(=O)O)C(=O)N1CCC[C@H]1C(=O)O)[C@@H](C)CC` [PTD-P15, arginine-asparaginic acid-leucine-tyrosine-asparaginic acid-asparaginic acid-asparaginic acid-asparaginic acid-lysine-asparaginic acid-arginine-methionine-proline-tyrosine-serine-threonine-glutamic acid-leucine-isoleucine-phenylalanine-tyrosine-isoleucine-glutamic acid-methionine-asparaginic acid-proline], the toxicity entry is listed as “no obvious toxicity”.

The values are drawn from US20140179619A1, “POLYPEPTIDE, NUCLEOTIDE SEQUENCE THEREOF, AND METHOD FOR USING THE SAME FOR PREVENTING DNA SYNTHESIS AND INHIBITING CELL PROLIFERATION” (Wuhan Yicheng Biotech, Inc., priority 2011, published 2014).
